No constants are given. Whether binding was seen depends on the method and setting. Binding seen in cells or lysates may run through a third protein. Here binding means that the protein was enriched with, or labelled near, the bait; the list need not be complete.

Sequences of proteins named here, by UniProt entry; tags and fusion partners are left off.
UniProt Q02248: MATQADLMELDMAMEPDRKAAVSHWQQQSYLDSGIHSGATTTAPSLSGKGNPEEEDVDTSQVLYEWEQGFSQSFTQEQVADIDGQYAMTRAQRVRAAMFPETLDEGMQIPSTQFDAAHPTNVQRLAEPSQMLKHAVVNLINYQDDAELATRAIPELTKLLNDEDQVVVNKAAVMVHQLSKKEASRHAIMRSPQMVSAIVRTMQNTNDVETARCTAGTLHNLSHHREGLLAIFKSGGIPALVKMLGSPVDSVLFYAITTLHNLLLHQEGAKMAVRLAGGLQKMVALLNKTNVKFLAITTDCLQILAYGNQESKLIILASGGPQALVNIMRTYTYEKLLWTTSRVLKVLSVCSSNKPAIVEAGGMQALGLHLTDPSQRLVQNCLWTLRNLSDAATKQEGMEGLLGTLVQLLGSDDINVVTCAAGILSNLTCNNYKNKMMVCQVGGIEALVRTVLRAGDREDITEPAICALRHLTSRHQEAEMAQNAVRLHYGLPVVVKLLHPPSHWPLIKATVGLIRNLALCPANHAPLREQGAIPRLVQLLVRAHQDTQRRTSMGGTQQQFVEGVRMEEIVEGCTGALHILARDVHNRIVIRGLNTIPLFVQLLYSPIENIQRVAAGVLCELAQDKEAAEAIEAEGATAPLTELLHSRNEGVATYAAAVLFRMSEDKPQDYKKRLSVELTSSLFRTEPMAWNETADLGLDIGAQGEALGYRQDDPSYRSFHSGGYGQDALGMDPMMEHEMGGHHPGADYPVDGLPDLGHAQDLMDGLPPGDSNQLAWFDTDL
UniProt Q811D0: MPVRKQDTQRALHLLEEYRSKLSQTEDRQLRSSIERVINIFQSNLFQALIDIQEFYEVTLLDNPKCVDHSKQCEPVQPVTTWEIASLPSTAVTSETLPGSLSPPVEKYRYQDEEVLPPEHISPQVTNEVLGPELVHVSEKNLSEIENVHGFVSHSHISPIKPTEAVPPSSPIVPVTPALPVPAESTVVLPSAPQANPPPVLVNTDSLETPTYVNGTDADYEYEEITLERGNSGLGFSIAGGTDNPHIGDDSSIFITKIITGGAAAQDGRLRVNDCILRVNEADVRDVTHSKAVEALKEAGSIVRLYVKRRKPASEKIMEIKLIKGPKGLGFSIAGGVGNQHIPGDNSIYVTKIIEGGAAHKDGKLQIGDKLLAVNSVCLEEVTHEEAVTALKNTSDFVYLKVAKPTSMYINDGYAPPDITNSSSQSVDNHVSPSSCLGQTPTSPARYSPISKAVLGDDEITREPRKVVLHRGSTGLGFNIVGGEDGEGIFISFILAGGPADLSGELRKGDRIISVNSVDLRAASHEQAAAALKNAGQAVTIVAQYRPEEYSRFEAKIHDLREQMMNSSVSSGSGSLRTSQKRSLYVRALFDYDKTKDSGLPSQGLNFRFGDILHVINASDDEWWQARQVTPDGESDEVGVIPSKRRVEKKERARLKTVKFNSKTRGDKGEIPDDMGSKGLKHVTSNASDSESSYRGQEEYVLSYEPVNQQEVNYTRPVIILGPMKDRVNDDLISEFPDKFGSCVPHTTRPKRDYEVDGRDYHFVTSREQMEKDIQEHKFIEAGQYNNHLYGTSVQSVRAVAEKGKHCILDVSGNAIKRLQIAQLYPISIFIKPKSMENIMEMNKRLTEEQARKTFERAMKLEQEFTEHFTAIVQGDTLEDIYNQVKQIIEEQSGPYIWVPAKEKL
UniProt P23242: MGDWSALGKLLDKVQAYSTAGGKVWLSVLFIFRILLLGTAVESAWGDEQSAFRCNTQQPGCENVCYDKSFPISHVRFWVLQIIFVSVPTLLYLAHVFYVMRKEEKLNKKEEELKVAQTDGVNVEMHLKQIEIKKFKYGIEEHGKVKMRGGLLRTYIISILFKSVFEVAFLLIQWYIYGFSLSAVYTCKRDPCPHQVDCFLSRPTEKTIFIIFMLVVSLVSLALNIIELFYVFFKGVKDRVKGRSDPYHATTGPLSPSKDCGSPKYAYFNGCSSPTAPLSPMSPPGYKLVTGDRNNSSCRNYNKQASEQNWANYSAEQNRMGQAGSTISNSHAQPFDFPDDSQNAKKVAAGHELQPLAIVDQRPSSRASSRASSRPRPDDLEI
UniProt Q64727: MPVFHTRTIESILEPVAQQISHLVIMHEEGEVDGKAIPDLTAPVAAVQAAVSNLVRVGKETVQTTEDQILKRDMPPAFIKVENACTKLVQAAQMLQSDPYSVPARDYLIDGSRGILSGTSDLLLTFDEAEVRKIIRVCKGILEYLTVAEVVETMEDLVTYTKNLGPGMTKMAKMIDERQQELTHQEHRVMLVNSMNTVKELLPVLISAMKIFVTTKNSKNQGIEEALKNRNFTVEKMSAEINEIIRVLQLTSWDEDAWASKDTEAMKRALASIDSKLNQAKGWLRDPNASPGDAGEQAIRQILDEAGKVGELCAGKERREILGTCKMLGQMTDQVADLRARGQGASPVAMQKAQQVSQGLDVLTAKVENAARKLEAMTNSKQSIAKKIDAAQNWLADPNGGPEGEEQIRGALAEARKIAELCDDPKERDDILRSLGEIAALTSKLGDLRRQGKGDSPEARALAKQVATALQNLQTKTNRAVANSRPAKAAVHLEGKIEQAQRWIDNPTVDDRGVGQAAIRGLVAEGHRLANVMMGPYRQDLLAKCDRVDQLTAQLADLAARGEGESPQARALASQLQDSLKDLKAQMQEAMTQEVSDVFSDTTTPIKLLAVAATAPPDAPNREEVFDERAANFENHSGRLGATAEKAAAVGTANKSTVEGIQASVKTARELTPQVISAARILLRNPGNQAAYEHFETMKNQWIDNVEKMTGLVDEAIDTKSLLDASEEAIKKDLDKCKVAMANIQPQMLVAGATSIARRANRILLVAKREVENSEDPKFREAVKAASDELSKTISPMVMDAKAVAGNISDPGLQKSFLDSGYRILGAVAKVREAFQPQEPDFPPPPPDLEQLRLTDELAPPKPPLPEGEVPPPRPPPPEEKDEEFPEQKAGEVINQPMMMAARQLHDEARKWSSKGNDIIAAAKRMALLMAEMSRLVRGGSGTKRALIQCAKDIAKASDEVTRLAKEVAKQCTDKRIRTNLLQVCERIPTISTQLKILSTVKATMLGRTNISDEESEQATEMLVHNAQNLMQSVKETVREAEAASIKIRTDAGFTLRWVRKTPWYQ

The target of this experiment is NaV1.5, endogenous in mouse heart (mouse (endogenous in heart)) (UniProt Q9JJV9). Description: affinity purification with mass spectrometry; NaV1.5 immunoprecipitated from WT or cFgf13^KO mouse hearts (n = 3 each); co-immunoprecipitated proteins identified by mass spectrometry; the named hits are depleted in KO compared with WT hearts.
On to “protein encoded by Ctnnb1 (from UniProt Q02248 1-781)”, for which the binding result was “binds”.

Consider “protein encoded by Dlg1 (from UniProt Q811D0 1-905)”, for which the binding result is on record as “binds”.

As to “protein encoded by Gja1 (from UniProt P23242 1-382)”, the binding entry is given as “binds”. As to “protein encoded by Vcl (from UniProt Q64727 1-1066)”, the binding result was “binds”.

For the origin of these results see PMC12520690.
